According to patent JP2018038398A:
Residue numbers refer to the chain shown, from its start. No constants are given. Whether binding was seen depends on the method and setting. Some entries that bind do so weakly or less than the wild type.

Sequences of proteins named here, by UniProt entry; tags and fusion partners are left off. Residues count along the entry.
UniProt P10646, residues 29-304: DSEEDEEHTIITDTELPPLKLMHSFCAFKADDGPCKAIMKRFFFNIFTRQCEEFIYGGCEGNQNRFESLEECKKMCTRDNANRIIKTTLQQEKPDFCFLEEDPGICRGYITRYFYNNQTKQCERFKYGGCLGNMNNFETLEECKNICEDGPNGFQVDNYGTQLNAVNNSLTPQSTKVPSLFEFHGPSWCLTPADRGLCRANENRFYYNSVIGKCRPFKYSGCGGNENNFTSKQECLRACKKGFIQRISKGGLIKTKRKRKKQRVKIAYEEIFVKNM

B1: TP-2A2 (Fab, V domains shown)
VH: QVQLVESGGGLVQPGGSLRLSCAASGFTFSNNAMNWVRQAPGKGLEWVSTISYDGSNTYYADSVKGRFTISRDNSKNTLYLQMNSLRAEDTAVYYCARQAGGWTYSYTDVWGQGTLVTVSS
VL: DIELTQPPSVSVAPGQTARISCSGDNIRTYYVHWYQQKPGQAPVVVIYGDSKRPSGIPERFSGSNSGNTATLTISGTQAEDEADYYCQSYDSEADSEVFGGGTKLTVLG
B2: TP-2B9 (Fab, V domains shown)
VH: QVQLQQSGPGLVKPSQTLSLTCAISGDSVSSNSAAWGWIRQSPGRGLEWLGMIYHRSKWYNDYAVSVKSRITINPDTSKNQFSLQLNSVTPEDTAVYYCARYSSIGHMDYWGQGTLVTVSS
VL: DIQMTQSPSSLSASVGDRVTITCRASQSIRSYLAWYQQKPGKAPKLLIYKASNLQSGVPSRFSGSGSGTDFTLTISSLQPEDFAVYYCHQYSDSPVTFGQGTKVEIKR
B3: TP-2C1 (Fab, V domains shown)
VH: QVQLVESGGGLVQPGGSLRLSCAASGFTFSPYVMSWVRQAPGKGLEWVSSISSSSSNTYYADSVKGRFTISRDNSKNTLYLQMNSLRAEDTAVYYCARGDSYMYDVWGQGTLVTVSS
VL: DIELTQPPSVSVAPGQTARISCSGDSIGSYYAHWYQQKPGQAPVLVIYYDSKRPSGIPERFSGSNSGNTATLTISGTQAEDEADYYCQAYTGQSISRVFGGGTKLTVLG
B4: TP-2C7 (Fab, V domains shown)
VH: B2 VH with M52I, H55Y, D62H, Y102S, S103N, S104W, I105S, H107Y, M108F
VL: DIQMTQSPSSLSASVGDRVTITCRASQDIRNNLAWYQQKPGKAPKLLIYAASSLQSGVPSRFSGSGSGTDFTLTISSLQPEDFAVYYCQQRNGFPLTFGQGTKVEIKR
B5: TP-2E3 (Fab, V domains shown)
VH: B2 VH with H55Y, Y102V, S103N, S104Q, I105Y, G106T, H107S, M108S
VL: DIALTQPASVSGSPGQSITISCTGTSSDIGGYNYVSWYQQHPGKAPKLMIYGVNYRPSGVSNRFSGSKSGNTASLTISGLQAEDEADYYCSSADKFTMSIVFGGGTKLTVLG
B6: TP-2E5 (Fab, V domains shown)
VH: QVQLQQSGPGLVKPSQTLSLTCAISGDSVSSNSAAWSWIRQSPGRGLEWLGMIFYRSKWNNDYAVSVKSRITINPDTSKNQFSLQLNSVTPEDTAVYYCARVNANGYYAYVDLWGQGTLVTVSS
VL: DIQMTQSPSSLSASVGDRVTITCRASQPIYNSLSWYQQKPGKAPKLLIYGVSNLQSGVPSRFSGSGSGTDFTLTISSLQPEDFAVYYCLQVDNLPITFGQGTKVEIKR
B7: TP-2G2 (Fab, V domains shown)
VH: QVQLVESGGGLVQPGGSLRLSCAASGFTFSSYAMNWVRQAPGKGLEWVSAILSDGSSTSYADSVKGRFTISRDNSKNTLYLQMNSLRAEDTAVYYCARYPDWGWYTDVWGQGTLVTVSS
VL: DIELTQPPSVSVAPGQTARISCSGDNIRKFYVHWYQQKPGQAPVLVIYGTNKRPSGIPERFSGSNSGNTATLTISGTQAEDEADYYCQSYDSKFNTVFGGGTKLTVLG
B8: TP-2G4 (Fab, V domains shown)
VH: QVQLVESGGGLVQPGGSLRLSCAASGFTFSSYAMTWVRQAPGKGLEWVSNISYSGSNTYYADSVKGRFTISRDNSKNTLYLQMNSLRAEDTAVYYCARVGYYYGFDYWGQGTLVTVSS
VL: DIELTQPPSVSVAPGQTARISCSGDALRKHYVYWYQQKPGQAPVLVIYGDNNRPSGIPERFSGSNSGNTATLTISGTQAEDEADYYCQSYDKPYPILVFGGGTKLTVLG
B9: TP-2A5.1 (Fab, V domains shown)
VH: QVQLVESGGGLVQPGGSLRLSCAASGFTFSSYGSWVRQAPGKGLEWVSVISGSGSSTYYADSVKGRFTISRDNSKNTLYLQMNSLRAEDTAVYYCARVNISTHFDVWGQGTLVTVSS
VL: DIELTQPPSVSVAPGQTARISCSGDNIPEKYVHWYQQKPGQAPVLVIHGDNNRPSGIPERFSGSNSGNTATLTISGTQAEDEADYYCQSFDAGSYFVFGGGTKLTVLG
B10: TP-2G6 (Fab, V domains shown)
VH: QVQLQQSGPGLVKPSQTLSLTCAISGDSVSSSSAAWSWIRQSPGRGLEWLGIIYYRSKWYNDYAVSVKSRITINPDTSKNQFSLQLNSVTPEDTAVYYCARHSMVGFDVWGQGTLVTVSS
VL: DIVLTQSPATLSLSPGERATLSCRASQYVTSSYLAWYQQKPGQAPRLLIYGSSRATGVPARFSGSGSGTDFTLTISSLEPEDFATYYCQQYSSSPITFGQGTKVEIKR
B11: TP-2G7 (Fab, V domains shown)
VH: QVQLVESGGGLVQPGGSLRLSCAASGFTFNSYAMSWVRQAPGKGLEWVSNISSNSSNTYYADSVKGRFTISRDNSKNTLYLQMNSLRAEDTAVYYCARKGGGEHGFFPSDIWGQGTLVTVSS
VL: B1 VL with I27L, R28G, V45L, S51N, K52N, S89T, E93N, A94N, D95E, E97I
B12: TP-2G9 (Fab, V domains shown)
VH: QVQLVESGGGLVQPGGSLRLSCAASGFTFNSYAMTWVRQAPGKGLEWVSAIKSDGSNTYYADSVKGRFTISRDNSKNTLYLQMNSLRAEDTAVYYCARNDSGWFDVWGQGTLVTVSS
VL: DIALTQPASVSGSPGQSITISCTGTSSDLGGFNTVSWYQQHPGKAPKLMIYSVSSRPSGVSNRFSGSKSGNTASLTISGLQAEDEADYYCQSYDLNNLVFGGGTKLTVLG
B13: TP-3A2 (Fab, V domains shown)
VH: QVQLVESGGGLVQPGGSLRLSCAASGFTFSNYYLSWVRQAPGKGLEWVSGISYNGSSTNYADSVKGRFTISRDNSKNTLYLQMNSLRAEDTAVYYCARMWRYSLGADSWGQGTLVTVSS
VL: DIELTQPPSVSVAPGQTARISCSGDNIGSRYAYWYQQKPGQAPVVVIYDDSDRPSGIPERFSGSNSGNTATLTISGTQAEDEADYYCAAYTFYARTVFGGGTKLTVLG
B14: TP-3A3 (Fab, V domains shown)
VH: QVQLVESGGGLVQPGGSLRLSCAASGFTFNNNAISWVRQAPGKGLEWVSAINSSSSSTSYADSVKGRFTISRDNSKNTLYLQMNSLRAEDTAVYYCARGHHRGHSWASFIDYWGQGTLVTVSS
VL: DIELTQPPSVSVAPGQTARISCSGDNIGSKYVHWYQQKPGQAPVVVIYEDSDRPSGIPERFSGSNSGNTATLTISGTQAEDEADYYCQSWDKSEGYVFGGGTKLTVLG
B15: TP-3A4 (Fab, V domains shown)
VH: QVQLVESGGGLVQPGGSLRLSCAASGFTFSSYWMHWVRQAPGKGLEWVSSISYDSSNTYYADSVKGRFTISRDNSKNTLYLQMNSLRAEDTAVYYCARYGGMDYWGQGTLVTVSS
VL: DIELTQPPSVSVAPGQTARISCSGDNLRDKYASWYQQKPGQAPVLVIYSKSERPSGIPERFSGSNSGNTATLTISGTQAEDEADYYCSSYTLNPNLNYVFGGGTKLTVLG
B16: TP-3B3 (Fab, V domains shown)
VH: B8 VH with A33G, T35H, S54M, Y59N, V99G, G100L, Y101F, Y102P, Y103G, G104Y
VL: DIELTQPASVSVAPGQTARISCSGDNLRSKYAHWYQQKPGQAPVLVIYGDNNRPSGIPERFSGSNSGNTATLTISGTQAEDEADYYCSAYAMGSSPVFGGGTKLTVLG
B17: TP-3B4 (Fab, V domains shown)
VH: QVQLQQSGPGLVKPSQTLSLTCAISGDSVSSNGAAWGWIRQSPGRGLEWLGHIYYRSKWYNSYAVSVKSRITINPDTSKNQFSLQLNSVTPEDTAVYYCARWGGIHDGDIYFDYWGQGTLVTVSS
VL: DIQMTQSPSSLSASVGDRVTITCRASQNISNYLNWYQQKPGKAPKLLIYGTSSLQSGVPSRFSGSGSGTDFTLTISSLQPEDFAVYYCQQYGNNPTTFGQGTKVEIKR
B18: TP-3C1 (Fab, V domains shown)
VH: QVQLVESGGGLVQPGGSLRLSCAASGFTFSSYSMHWVRQAPGKGLEWVSGISYSSSFTYYADSVKGRFTISRDNSKNTLYLQMNSLRAEDTAVYYCARALGGGVDYWGQGTLVTVSS
VL: B12 VL
B19: TP-2A6 (Fab, V domains shown)
VH: QVQLVESGGGLVQPGGSLRLSCAASGFTFSRYAMSWVRQAPGKGLEWVSSIISSSSETYYADSVKGRFTISRDNSKNTLYLQMNSLRAEDTAVYYCARLMGYGHYYPFDYWGQGTLVTVSS
VL: DIELTQPPSVSVAPGQTARISCSGDKIGSKYVYWYQQKPGQAPVLVIYDSNRPSGIPERFSGSNSGNTATLTISGTQAEDEADYYCASYDSIYSYWVFGGGTKLTVLG
B20: TP-3C2 (Fab, V domains shown)
VH: B10 VH with I52M, D62H, H102G, S103G, M104S, V105G, G106V, F107M
VL: B17 VL with N28S, S30T, G50D, T51V, S53N, G92S, N93G, N94Y, T96L
B21: TP-3C3 (Fab, V domains shown)
VH: QVQLQQSGPGLVKPSQTLSLTCAISGDSVSSNSAAWGWIRQSPGRGLEWLGVIYYRSKWYNDYAVSVKSRITINPDTSKNQFSLQLNSVTPEDTAVYYCARARAKKSGGFDYWGQGTLVTVSS
VL: DIQMTQSPSSLSASVGDRVTITCRASQSINPYLNWYQQKPGKAPKLLIYAASNLQSGVPSRFSGSGSGTDFTLTISSLQPEDFAVYYCQQLDNRSITFGQGTKVEIKR
B22: TP-3D3 (Fab, V domains shown)
VH: QVQLVESGGGLVQPGGSLRLSCAASGFTFSSYASWVRQAPGKGLEWVSGISGDGSNTHYADSVKGRFTISRDNSKNTLYLQMNSLRAEDTAVYYCARYDNFYFDVWGQGTLVTVSS
VL: DIELTQPPSVSVAPGQTARISCSGDSLGSKFAHWYQQKPGQAPVLVIYDDSNRPSGIPERFSGSNSGNTATLTISGTQAEDEADYYCSTYTSRSHSYVFGGGTKLTVLG

Molecular target: ヒトTFPI(American Diagnostica) (human) (UniProt P10646)
Assay: ELISA screen of Fab lysates on coated human TFPI

binding, binds:
B1
B2
B3
B4
B5
B6
B7
B8
B9
B10
B11
B12
B13
B14
B15
B16
B17
B18
B19
B20
B21
B22
